According to patent US7927849B2, “Laccase enzyme and use thereof” (AB Enzymes OY, priority 2004, dated 2011):

B1: wt TaLcc1: Wild type laccase purified from Thielavia arenaria ALKO4197 culture supernatant (protein)
chain: MKSWAAAVALMVGILSPHAAAAPPANPVQRDMLQVLEARQSGPTCNTPSNRACWTNGFDINTDYEVSTPNTGRTVAYQLTLTEKENWIGPDGVLKNVVMLVNDKIIGPTIRANWGDNIEVTVINNLKTNGTSMHWHGLRQLGNVFNDGANGVTECPIPPKGGRKTYKFRATQYGTSWYHSHFSAQYGNGVVGTIQIDGPASLPYDIDLGVFPLMDYYYRSADELVHFTQSNGAPPSDNVLFNGTARHPETGAGQWYNVTLTPGKRHRLRIINTSTDNHFQVSLVGHNMTVIATDMVPVNAFTVSSLFLAVGQRYDVTIDANSPVGNYWFNVTFGDGLCGSSNNKFPAAIFRYQGAPATLPTDQGLPVPNHMCLDNLNLTPVVTRSAPVNNFVKRPSNTLGVTLDIGGTPLFVWKVNGSAINVDWGKPILDYVMSGNTSYPVSDNIVQVDAVDQWTYWLIENDPTNPIVSLPHPMHLHGHDFLVLGRSPDELPSAGVRHIFDPAKDLPRLKGNNPVRRDVTMLPAGGWLLLAFKTDNPGAWLFHCHIAWHVSGGLSVDFLERPNDLRTQLNSNAKRADRDDFNRVCREWNAYWPTNPFPKIDSGLRHRFVEESEWMVR
modifications: Thielavia arenaria ALKO4197; (1)..(617) Deduced amino acid sequence of Thielavia arenaria ALKO4197 laccase 1 (Ta Lcc1)
notes: Wild type laccase purified from Thielavia arenaria ALKO4197 culture supernatant
B2: TaLcc1: Recombinant Thielavia arenaria ALKO4197 laccase 1 (SEQ ID NO: 12) produced in Trichoderma reesei strains RF5597/RF5598 (protein)
chain: MKSWAAAVALMVGILSPHAAAAPPANPVQRDMLQVLEARQSGPTCNTPSNRACWTNGFDINTDYEVSTPNTGRTVAYQLTLTEKENWIGPDGVLKNVVMLVNDKIIGPTIRANWGDNIEVTVINNLKTNGTSMHWHGLRQLGNVFNDGANGVTECPIPPKGGRKTYKFRATQYGTSWYHSHFSAQYGNGVVGTIQIDGPASLPYDIDLGVFPLMDYYYRSADELVHFTQSNGAPPSDNVLFNGTARHPETGAGQWYNVTLTPGKRHRLRIINTSTDNHFQVSLVGHNMTVIATDMVPVNAFTVSSLFLAVGQRYDVTIDANSPVGNYWFNVTFGDGLCGSSNNKFPAAIFRYQGAPATLPTDQGLPVPNHMCLDNLNLTPVVTRSAPVNNFVKRPSNTLGVTLDIGGTPLFVWKVNGSAINVDWGKPILDYVMSGNTSYPVSDNIVQVDAVDQWTYWLIENDPTNPIVSLPHPMHLHGHDFLVLGRSPDELPSAGVRHIFDPAKDLPRLKGNNPVRRDVTMLPAGGWLLLAFKTDNPGAWLFHCHIAWHVSGGLSVDFLERPNDLRTQLNSNAKRADRDDFNRVCREWNAYWPTNPFPKIDSGLRHRFVEESEWMVR
modifications: Thielavia arenaria ALKO4197; (1)..(617) Deduced amino acid sequence of Thielavia arenaria ALKO4197 laccase 1 (Ta Lcc1)

How the values were obtained:
[1] = Denim bleaching at different temperatures (Launder Ometer); conditions: denim bleaching application
Protocol: The test system and denim were as in Example 7, except that the conditions during the laccase and mediator treatment in Launder were 30 min, pH 6 and temperature 30-80° C. Also, the enzyme was inactivated by an alkaline treatment instead of raising the temperature in Launder as follows. After removing swatches from the containers they were soaked in warm water containing NaOH (pH 11.5) for 10 min and rinsed carefully with warm water. The swatches were dried half-dry in a tumbler and after that air dried. The bleaching effect was evaluated by measuring the colour as reflectance values as in Example 7.

[2] = pH optimum on guaiacol; format: biochemical; conditions: McIlvaine buffer, pH range 2.0-8.0

| Molecule | temperature optimum in denim bleaching [1] | pH optimum on guaiacol [2] | pH optimum on guaiacol ([2]; listed as Thielavia laccase) |
| --- | --- | --- | --- |
| B1 | 60 °C | 6.0 | 5.5 |
| B2 | 60-70 °C | 6.0 |  |
